We go through 23 sequences from publication PMC7862700.

By UniProt entry, the sequences of proteins in these tests, tags left out. Where a name states a change or a piece, a line headed by the entry shows the natural chain unless it says otherwise.
UniProt P32519: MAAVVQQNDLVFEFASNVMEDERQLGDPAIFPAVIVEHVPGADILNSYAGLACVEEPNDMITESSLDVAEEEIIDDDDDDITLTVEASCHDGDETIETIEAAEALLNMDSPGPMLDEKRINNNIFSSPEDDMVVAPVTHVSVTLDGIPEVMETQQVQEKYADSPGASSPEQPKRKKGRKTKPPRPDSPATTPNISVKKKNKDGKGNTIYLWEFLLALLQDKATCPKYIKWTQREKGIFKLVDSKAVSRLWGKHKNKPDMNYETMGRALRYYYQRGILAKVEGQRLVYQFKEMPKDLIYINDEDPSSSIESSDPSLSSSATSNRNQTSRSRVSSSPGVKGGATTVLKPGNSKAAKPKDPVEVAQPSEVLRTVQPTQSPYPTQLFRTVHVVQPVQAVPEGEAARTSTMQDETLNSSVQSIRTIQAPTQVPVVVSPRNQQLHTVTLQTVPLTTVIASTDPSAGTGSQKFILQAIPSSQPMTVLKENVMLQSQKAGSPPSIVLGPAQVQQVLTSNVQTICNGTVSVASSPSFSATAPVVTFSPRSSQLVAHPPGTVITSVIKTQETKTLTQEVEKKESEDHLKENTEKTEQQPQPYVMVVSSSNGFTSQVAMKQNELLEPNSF
UniProt P50549: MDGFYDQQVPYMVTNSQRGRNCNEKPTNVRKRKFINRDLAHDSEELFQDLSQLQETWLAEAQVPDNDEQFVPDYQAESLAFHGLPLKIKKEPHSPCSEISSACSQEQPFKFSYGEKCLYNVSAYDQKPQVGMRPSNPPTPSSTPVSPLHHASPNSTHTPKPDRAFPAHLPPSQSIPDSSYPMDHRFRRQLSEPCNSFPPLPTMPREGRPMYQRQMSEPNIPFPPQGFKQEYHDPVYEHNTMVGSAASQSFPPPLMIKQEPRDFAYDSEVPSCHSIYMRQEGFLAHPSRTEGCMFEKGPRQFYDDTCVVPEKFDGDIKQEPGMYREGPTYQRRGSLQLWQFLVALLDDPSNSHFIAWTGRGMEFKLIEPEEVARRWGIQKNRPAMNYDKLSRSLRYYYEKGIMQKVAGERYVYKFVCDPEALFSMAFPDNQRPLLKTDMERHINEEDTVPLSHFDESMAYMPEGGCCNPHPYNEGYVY

Holding throughout (assay): DAPPL (digital affinity profiling via proximity ligation, sequencing)
Conditions in all cases: 10 mM Tris-HCl pH 7.5, 50 mM NaCl, 1 mM DTT, 4% glycerol, room temperature, 30 min; GST-TFs on glutathione beads, 16-mer random dsDNA library, 0.1% …; high values mean tight binding; double strand, one strand shown; scale: fold enrichment (6-mer frequency, TF over GST control)

In one assay the target is T1, ERG (UniProt P11308).
T1 sequence: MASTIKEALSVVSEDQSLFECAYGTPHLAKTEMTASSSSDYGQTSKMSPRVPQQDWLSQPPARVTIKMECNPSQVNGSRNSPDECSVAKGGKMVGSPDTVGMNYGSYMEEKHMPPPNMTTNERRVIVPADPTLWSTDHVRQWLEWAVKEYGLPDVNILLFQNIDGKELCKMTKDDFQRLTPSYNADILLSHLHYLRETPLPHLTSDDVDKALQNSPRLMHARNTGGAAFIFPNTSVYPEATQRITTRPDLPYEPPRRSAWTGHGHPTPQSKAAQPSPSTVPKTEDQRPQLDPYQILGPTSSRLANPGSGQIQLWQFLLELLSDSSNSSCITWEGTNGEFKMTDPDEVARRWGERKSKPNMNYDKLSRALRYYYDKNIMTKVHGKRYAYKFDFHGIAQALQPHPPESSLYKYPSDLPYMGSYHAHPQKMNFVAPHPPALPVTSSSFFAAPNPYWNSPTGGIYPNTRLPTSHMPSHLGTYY

For another assay, the target named is ELF1 (UniProt P32519).
For the next assay, the target named is T2, ELK4 (UniProt P28324-2).
T2 sequence: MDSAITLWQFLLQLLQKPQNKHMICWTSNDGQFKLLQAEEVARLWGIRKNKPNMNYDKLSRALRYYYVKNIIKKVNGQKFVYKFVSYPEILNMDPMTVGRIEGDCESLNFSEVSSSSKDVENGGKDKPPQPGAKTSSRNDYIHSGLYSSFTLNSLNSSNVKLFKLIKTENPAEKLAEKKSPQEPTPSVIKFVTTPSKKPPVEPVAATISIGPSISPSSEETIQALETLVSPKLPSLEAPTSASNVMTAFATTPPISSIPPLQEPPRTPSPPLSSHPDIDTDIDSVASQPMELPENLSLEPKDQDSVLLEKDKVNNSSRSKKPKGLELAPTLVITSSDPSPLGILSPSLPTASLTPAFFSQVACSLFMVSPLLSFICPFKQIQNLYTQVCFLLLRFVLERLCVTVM

A further assay concerns the target T3, ETV4 (UniProt P43268).
T3 sequence: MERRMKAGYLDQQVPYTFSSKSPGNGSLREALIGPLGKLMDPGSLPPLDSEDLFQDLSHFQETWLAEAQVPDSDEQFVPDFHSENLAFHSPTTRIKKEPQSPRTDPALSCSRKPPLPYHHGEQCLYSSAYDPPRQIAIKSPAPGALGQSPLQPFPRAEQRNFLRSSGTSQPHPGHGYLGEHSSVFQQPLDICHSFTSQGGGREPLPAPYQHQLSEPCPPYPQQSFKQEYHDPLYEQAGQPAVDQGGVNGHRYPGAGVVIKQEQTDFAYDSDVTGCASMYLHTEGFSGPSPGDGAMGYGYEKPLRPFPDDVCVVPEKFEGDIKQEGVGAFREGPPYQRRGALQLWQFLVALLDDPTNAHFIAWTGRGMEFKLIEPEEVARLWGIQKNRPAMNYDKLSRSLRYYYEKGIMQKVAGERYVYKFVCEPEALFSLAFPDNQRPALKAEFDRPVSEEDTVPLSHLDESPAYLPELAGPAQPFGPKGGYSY

The next assay has as its target ETV1 (UniProt P50549).
The target in the next assay is T4, ERF (UniProt P50548).
T4 sequence: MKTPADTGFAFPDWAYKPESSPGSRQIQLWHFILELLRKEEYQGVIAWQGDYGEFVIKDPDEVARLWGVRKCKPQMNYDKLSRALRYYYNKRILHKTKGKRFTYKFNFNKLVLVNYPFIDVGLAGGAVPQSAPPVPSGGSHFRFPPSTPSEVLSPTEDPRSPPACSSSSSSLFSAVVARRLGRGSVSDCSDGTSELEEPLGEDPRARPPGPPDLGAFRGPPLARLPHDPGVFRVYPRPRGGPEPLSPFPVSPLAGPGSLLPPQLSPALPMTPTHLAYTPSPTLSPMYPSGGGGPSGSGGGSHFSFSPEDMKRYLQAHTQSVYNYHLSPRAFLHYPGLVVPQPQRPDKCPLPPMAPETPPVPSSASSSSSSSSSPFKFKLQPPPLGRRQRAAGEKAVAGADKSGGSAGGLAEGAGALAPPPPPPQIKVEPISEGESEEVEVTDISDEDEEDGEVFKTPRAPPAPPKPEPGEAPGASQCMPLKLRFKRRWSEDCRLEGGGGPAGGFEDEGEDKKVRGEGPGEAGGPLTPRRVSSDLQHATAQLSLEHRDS

This is a selection; strong and weak results do not stand in their true shares. For part of these data: At the low end of the ranking the order means little. The list shows a part of the results. For part of these data: The source does not settle which construct or isoform was used.

With TCGGTC, the binding signal with ERG came out at 0.57; with ELF1, 0.561; with ELK4 it was 0.606; in the assay with ETV4, 0.549; with ETV1, 0.566; in the assay with ERF, 0.599.
For the sequence GACATA, the binding signal with ERG amounted to 0.872; with ELF1, 0.912; in the assay with ELK4, 0.789; with ETV4, 0.864; with ETV1 it was 0.895; in the assay with ERF, 0.835.
With GCGAGA, the binding signal with ERG stood at 0.525; with ELF1, 0.468; with ELK4 it was 0.437; in the assay with ETV4, 0.538; in the assay with ETV1, 0.517; in the assay with ERF, 0.558.
On to TGTCGG, for which the binding signal turned out to be 0.344 with ERG; 0.352 with ELF1; 0.342 with ELK4; 0.349 in the assay with ETV4; 0.342 in the assay with ETV1; 0.356 with ERF.
As to CACCAG, the binding signal with ERG was 0.713; with ELF1, 0.753; in the assay with ELK4 it was 0.783; with ETV4, 0.759; with ETV1, 0.717; with ERF, 0.712.
For the sequence CGGTGT, the binding signal was determined as 0.738 in the assay with ERG; 0.701 with ELF1; 0.633 with ELK4; 0.75 with ETV4; 0.741 with ETV1; 0.739 in the assay with ERF.
For the sequence GCAGTC, the binding signal was determined as 0.478 with ERG; 0.516 with ELF1; 0.451 in the assay with ELK4; 0.458 in the assay with ETV4; 0.457 with ETV1; 0.525 in the assay with ERF.
On to TCGGAA, for which the binding signal with ERG worked out at 0.566; with ELF1, 0.521; with ELK4, 0.496; with ETV4, 0.523; with ETV1, 0.571; with ERF, 0.553.
GGCACA: the binding signal in the assay with ERG came to 0.878; with ELF1, 0.815; with ELK4, 0.807; with ETV4 it was 0.848; with ETV1, 0.792; with ERF, 0.803.
Regarding AAGGAC, the binding signal with ERG amounted to 0.855; with ELF1, 0.894; with ELK4, 0.801; in the assay with ETV4, 0.857; in the assay with ETV1 it was 0.793; in the assay with ERF, 0.8.
Turning to ACCATG, the binding signal with ERG worked out at 0.849; with ELF1, 0.871; with ELK4, 0.959; with ETV4, 0.818; in the assay with ETV1, 0.792; in the assay with ERF, 0.881.
In the case of TGGAGA, the binding signal with ERG amounted to 0.366; with ELF1, 0.433; with ELK4, 0.393; with ETV4 it was 0.381; with ETV1, 0.409; in the assay with ERF it was 0.46.
ACCAGA: the binding signal is 0.879 in the assay with ERG; 0.981 with ELF1; 0.892 in the assay with ELK4; 0.856 in the assay with ETV4; 0.905 with ETV1; 0.82 with ERF.
As to GTACCG, the binding signal in the assay with ERG amounted to 0.753; with ELF1, 0.736; in the assay with ELK4 it was 0.729; with ETV4, 0.777; with ETV1 it was 0.823; in the assay with ERF it was 0.638.
Regarding CCAAGG, the binding signal in the assay with ERG stood at 0.928; with ELF1 it was 0.969; with ELK4, 0.946; with ETV4, 0.911; in the assay with ETV1, 0.873; with ERF, 0.891.
Turning to GACAGC, the binding signal with ERG was determined as 0.778; in the assay with ELF1 it was 0.832; in the assay with ELK4, 0.752; with ETV4, 0.79; with ETV1 it was 0.775; with ERF it was 0.864.
For GAGACG, the binding signal with ERG is 0.341; with ELF1, 0.312; with ELK4, 0.317; with ETV4, 0.333; with ETV1, 0.286; with ERF, 0.349.
Take GCAGAC: the binding signal with ERG turned out to be 0.729; with ELF1 it was 0.694; with ELK4, 0.717; with ETV4, 0.69; with ETV1 it was 0.728; with ERF, 0.69.
Take GACCAT: the binding signal was found to be 0.823 with ERG; 0.798 in the assay with ELF1; 0.869 in the assay with ELK4; 0.915 with ETV4; 0.786 with ETV1; 0.821 with ERF.
Take GATGAG: the binding signal in the assay with ERG was found to be 0.796; with ELF1, 0.868; with ELK4, 0.797; with ETV4, 0.833; in the assay with ETV1, 0.766; with ERF, 0.838.
As to GAGGTT, the binding signal was 0.754 with ERG; 0.788 in the assay with ELF1; 0.95 with ELK4; 0.843 in the assay with ETV4; 0.833 in the assay with ETV1; 0.807 with ERF.
Turning to GTGAAC, the binding signal is 0.823 in the assay with ERG; 0.871 in the assay with ELF1; 0.892 with ELK4; 0.786 with ETV4; 0.883 with ETV1; 0.844 with ERF.
On to GGGGTT, for which the binding signal was 0.78 with ERG; 0.856 in the assay with ELF1; 0.905 with ELK4; 0.87 with ETV4; 0.912 in the assay with ETV1; 0.85 in the assay with ERF.
